Values quoted from earlier work, collected in patent US20210032291A1, “Compstatin Analogs With Improved Pharmacokinetic Properties” (The Trustees of the University of Pennsylvania, priority 2011, published 2021).
Some results were stated once for a whole list of compounds, not compound by compound.

Details: same baboon model, previously determined; cited from earlier work

## CC[C@H](C)[C@H](NC(C)=O)C(=O)N[C@H]1CSSC[C@@H](C(=O)N[C@H](C(N)=O)[C@@H](C)O)NC(=O)[C@H](CCCNC(=N)N)NC(=O)[C@H](Cc2cnc[nH]2)NC(=O)[C@H](C)NC(=O)CNC(=O)[C@H](Cc2c[nH]c3ccccc23)NC(=O)[C@H](CC(=O)O)NC(=O)[C@H](CCC(N)=O)NC(=O)[C@H](Cc2cn(C)c3ccccc23)NC(=O)[C@H](C(C)C)NC1=O [4(1MeW), reference compound]
  Half-life: 1 to 1.5 h
